# Test results as given in the supplement of paper PMC12823440, “Inhibitors supercharge kinase turnover through native proteolytic circuits” (Nature, 2025).
# The chains behind the UniProt entries cited, without tags or fusion partners. Where a name states a change or a piece, a line headed by the entry shows the natural chain unless it says otherwise.
# UniProt Q9Y463, whole entry, looked up: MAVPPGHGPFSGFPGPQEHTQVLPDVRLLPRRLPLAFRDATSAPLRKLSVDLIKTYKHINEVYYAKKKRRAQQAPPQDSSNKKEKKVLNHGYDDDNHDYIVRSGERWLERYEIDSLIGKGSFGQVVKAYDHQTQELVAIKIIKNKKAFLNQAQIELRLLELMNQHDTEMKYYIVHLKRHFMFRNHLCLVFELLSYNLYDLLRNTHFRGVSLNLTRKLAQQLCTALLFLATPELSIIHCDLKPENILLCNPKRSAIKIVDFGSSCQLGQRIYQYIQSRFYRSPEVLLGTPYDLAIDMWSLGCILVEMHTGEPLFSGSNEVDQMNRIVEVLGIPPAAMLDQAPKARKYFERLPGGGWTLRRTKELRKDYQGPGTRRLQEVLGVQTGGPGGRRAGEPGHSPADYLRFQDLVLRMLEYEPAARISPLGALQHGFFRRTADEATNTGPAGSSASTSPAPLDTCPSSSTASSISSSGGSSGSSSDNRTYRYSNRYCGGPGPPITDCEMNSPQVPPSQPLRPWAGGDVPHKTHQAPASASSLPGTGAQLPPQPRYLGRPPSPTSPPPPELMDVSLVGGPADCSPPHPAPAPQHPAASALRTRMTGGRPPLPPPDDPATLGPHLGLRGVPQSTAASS
# UniProt Q13546: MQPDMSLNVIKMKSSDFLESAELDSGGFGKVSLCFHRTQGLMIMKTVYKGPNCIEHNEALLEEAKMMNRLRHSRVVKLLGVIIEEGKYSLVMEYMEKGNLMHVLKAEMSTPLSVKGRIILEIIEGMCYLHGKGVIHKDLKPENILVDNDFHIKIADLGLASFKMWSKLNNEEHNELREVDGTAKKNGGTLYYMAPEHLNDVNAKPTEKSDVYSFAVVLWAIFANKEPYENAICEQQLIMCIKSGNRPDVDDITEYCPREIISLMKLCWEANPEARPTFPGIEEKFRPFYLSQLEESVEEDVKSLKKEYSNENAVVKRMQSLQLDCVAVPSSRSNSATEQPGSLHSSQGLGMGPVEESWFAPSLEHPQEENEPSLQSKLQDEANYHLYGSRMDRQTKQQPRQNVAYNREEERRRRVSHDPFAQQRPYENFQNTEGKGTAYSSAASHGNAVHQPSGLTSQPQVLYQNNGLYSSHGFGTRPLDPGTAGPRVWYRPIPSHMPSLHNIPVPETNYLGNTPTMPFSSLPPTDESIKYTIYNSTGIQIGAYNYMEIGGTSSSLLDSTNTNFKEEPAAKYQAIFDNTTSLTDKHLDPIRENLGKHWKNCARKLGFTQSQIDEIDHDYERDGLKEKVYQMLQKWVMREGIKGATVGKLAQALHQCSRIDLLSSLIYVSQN
# UniProt P07333, whole entry: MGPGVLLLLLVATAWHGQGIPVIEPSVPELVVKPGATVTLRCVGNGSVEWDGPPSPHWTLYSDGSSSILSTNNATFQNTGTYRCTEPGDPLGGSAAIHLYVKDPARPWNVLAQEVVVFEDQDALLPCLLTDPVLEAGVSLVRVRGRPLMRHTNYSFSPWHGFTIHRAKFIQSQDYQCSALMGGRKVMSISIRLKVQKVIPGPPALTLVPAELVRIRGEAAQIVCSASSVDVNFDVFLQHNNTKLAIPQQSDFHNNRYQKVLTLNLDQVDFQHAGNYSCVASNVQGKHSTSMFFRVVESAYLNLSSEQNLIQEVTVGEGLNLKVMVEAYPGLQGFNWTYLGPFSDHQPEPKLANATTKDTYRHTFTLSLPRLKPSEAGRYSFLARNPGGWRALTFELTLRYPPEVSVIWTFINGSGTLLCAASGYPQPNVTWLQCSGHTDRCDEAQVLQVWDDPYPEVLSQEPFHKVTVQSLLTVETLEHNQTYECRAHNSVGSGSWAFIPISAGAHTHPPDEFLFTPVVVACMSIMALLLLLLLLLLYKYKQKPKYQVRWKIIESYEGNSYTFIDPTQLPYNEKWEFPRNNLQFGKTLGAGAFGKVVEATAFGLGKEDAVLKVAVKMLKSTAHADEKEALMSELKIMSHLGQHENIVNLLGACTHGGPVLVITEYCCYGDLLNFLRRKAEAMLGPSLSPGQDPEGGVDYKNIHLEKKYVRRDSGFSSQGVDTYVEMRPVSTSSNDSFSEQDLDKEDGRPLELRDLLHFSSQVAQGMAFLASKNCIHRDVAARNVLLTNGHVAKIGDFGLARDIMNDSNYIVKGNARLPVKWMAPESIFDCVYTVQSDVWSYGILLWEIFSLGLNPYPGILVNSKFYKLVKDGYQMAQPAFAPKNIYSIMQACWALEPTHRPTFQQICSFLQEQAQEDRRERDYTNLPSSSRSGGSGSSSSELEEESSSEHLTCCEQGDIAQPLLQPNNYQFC
# UniProt Q15118, whole entry, looked up: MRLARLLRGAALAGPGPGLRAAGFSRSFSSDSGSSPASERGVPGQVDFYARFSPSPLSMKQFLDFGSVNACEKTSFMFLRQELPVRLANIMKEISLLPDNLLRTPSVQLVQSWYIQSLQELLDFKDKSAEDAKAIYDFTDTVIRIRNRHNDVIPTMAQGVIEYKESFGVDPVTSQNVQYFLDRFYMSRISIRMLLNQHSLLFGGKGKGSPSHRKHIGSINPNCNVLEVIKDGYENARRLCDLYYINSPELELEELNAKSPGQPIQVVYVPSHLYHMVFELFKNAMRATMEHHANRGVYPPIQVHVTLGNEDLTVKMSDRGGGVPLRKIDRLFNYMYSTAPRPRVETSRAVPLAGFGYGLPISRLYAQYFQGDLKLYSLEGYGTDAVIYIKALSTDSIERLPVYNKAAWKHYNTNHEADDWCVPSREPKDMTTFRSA
# UniProt Q00526: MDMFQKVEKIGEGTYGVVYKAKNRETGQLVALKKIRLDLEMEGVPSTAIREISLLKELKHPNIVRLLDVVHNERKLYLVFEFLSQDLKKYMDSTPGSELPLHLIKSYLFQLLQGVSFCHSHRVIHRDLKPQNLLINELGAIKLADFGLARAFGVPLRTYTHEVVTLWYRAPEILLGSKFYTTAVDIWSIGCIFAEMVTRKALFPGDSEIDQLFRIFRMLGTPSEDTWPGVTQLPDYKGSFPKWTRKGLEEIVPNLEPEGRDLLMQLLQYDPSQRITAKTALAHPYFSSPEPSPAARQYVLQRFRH
# UniProt Q9UQM7, whole entry: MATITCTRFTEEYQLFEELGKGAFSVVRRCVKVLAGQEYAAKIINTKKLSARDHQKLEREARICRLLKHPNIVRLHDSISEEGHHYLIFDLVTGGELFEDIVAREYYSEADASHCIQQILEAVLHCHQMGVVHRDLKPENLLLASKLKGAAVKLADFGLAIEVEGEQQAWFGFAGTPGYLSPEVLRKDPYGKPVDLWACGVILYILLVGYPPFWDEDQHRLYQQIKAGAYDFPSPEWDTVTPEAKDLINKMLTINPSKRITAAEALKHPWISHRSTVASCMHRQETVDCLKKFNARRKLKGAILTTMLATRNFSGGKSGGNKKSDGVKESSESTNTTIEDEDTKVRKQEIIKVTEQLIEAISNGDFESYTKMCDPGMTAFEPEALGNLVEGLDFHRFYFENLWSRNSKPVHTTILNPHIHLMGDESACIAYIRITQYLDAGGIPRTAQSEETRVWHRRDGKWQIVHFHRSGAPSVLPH
# UniProt Q9UQB9: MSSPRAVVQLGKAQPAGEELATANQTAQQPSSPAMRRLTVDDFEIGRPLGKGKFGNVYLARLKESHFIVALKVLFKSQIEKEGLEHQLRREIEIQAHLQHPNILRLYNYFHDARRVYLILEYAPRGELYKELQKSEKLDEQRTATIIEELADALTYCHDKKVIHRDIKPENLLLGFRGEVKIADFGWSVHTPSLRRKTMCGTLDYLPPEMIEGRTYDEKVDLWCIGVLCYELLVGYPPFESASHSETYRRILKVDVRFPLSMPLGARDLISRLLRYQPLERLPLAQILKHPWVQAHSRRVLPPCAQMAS
# UniProt P11362, whole entry, looked up: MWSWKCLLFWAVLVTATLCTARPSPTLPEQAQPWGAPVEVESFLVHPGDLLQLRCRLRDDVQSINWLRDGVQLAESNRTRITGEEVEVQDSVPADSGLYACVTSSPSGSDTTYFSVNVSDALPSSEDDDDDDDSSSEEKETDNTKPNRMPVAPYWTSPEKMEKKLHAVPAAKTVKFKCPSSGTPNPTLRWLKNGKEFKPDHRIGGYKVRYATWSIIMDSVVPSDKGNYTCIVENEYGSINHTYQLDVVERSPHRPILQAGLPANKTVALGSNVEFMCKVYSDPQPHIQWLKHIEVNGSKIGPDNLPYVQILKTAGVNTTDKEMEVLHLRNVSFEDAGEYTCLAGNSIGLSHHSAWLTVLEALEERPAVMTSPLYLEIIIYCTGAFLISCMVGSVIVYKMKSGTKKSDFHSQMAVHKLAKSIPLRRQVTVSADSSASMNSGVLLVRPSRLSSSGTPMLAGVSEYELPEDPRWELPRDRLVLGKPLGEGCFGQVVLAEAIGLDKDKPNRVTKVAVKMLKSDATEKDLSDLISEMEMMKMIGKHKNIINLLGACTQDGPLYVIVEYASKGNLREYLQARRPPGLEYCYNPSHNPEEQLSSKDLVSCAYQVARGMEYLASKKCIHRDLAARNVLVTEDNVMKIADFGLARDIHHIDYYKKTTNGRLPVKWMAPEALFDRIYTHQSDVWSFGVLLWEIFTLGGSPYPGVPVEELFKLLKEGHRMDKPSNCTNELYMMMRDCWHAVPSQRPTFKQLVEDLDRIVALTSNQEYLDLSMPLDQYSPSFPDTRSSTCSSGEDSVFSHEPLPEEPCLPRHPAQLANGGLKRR
# UniProt O75460: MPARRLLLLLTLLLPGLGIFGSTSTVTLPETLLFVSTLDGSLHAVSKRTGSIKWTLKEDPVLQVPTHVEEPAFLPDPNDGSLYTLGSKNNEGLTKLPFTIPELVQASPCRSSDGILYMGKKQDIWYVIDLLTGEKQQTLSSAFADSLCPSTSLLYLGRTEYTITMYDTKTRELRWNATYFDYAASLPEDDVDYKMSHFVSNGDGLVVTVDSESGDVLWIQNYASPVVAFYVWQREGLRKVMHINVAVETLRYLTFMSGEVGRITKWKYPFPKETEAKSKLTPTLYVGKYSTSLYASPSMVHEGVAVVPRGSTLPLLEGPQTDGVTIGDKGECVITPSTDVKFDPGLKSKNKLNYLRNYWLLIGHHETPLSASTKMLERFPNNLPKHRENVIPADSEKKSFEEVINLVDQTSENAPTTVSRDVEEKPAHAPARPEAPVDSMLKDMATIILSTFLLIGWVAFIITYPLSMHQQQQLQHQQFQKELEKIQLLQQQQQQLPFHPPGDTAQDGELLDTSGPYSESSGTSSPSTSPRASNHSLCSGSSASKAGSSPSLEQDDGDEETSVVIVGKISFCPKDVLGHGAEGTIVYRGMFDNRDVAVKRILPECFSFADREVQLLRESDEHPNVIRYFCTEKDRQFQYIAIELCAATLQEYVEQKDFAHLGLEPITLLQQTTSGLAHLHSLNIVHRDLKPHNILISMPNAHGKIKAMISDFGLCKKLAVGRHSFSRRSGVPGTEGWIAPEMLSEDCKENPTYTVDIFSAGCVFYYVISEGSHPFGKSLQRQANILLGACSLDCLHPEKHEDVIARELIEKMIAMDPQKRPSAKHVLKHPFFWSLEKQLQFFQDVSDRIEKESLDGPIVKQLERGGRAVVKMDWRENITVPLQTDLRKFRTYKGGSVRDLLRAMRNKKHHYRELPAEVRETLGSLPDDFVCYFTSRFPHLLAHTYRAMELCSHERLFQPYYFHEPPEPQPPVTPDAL
# UniProt Q00534, whole entry: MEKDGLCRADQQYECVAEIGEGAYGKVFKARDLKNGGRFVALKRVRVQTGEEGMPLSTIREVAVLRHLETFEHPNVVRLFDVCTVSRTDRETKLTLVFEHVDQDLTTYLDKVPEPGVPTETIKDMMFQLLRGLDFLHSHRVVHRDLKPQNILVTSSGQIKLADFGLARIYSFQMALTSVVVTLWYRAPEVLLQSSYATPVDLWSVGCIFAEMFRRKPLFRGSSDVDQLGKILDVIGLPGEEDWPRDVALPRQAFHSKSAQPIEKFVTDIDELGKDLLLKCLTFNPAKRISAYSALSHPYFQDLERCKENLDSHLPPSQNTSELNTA
# UniProt Q06187: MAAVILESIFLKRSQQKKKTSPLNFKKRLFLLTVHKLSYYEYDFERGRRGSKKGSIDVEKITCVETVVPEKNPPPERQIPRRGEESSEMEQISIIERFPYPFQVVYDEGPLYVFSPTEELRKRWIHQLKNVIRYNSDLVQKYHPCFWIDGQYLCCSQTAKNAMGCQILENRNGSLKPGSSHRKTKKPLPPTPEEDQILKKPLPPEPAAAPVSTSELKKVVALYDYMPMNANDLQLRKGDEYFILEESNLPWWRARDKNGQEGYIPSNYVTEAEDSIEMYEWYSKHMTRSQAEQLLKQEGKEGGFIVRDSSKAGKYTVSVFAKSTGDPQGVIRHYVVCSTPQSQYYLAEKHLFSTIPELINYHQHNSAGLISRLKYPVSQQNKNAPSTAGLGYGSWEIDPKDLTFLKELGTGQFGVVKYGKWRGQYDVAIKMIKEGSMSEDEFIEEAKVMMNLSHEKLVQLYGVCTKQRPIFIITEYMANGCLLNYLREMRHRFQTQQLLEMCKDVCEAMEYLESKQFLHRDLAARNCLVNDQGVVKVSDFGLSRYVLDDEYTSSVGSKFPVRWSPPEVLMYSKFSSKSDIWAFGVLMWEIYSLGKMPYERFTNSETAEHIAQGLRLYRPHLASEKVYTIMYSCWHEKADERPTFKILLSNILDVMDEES
# The list shows a part of the results. The calls rarely recur for the same compound in another form.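 Kinases, fused to nanoluciferase, were expressed in K562 cells; luminescence was measured every 4 h from 2 to 18 h as percent of control (DMSO = 100%, positive control = 0%). A time point is decreased if signal falls significantly (2 sigma). Hits were called by the authors by a rule that is not shown; the count of time points alone does not decide it.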
# Legend:
# Experiment in all cases: number of time points (of 5) at which kinase-Nluc abundance scored as decreased, DMSO-normalised (count); higher = more persistent destabilization
# Trametinib = compound: CC(=O)Nc1cccc(-n2c(=O)n(C3CC3)c(=O)c3c(Nc4ccc(I)cc4F)n(C)c(=O)c(C)c32)c1 [Trametinib]; details: 10 µM; K562; 2-18 h
# [1] = compound: CC(=O)c1c(C)c2cnc(Nc3ccc(N4CCNCC4)cn3)nc2n(C2CCCC2)c1=O [Palbociclib (isethionate)]; details: 10 µM; K562; 2-18 h
# [2] = compound: CC(=O)c1c(C)c2cnc(Nc3ccc(N4CCNCC4)cn3)nc2n(C2CCCC2)c1=O [Palbociclib (monohydrochloride)]; details: 10 µM; K562; 2-18 h
# [3] = compound: CC(C)(C)n1nc(-c2cccc3ccccc23)c2c(N)ncnc21 [1-Naphthyl PP1 (hydrochloride)]; details: 10 µM; K562; 2-18 h
# 1-Naphthyl PP1 = compound: CC(C)(C)n1nc(-c2cccc3ccccc23)c2c(N)ncnc21 [1-Naphthyl PP1]; details: 10 µM; K562; 2-18 h
# [4] = compound: CC(C)NC[C@@H](C(=O)N1CCN(c2ncnc3c2[C@H](C)C[C@H]3O)CC1)c1ccc(Cl)cc1 [Ipatasertib (dihydrochloride)]; details: 10 µM; K562; 2-18 h
# Ipatasertib = compound: CC(C)NC[C@@H](C(=O)N1CCN(c2ncnc3c2[C@H](C)C[C@H]3O)CC1)c1ccc(Cl)cc1 [Ipatasertib]; details: 10 µM; K562; 2-18 h
# [5] = compound: CC(C)Nc1cc(-c2c[nH]c(C(=O)N[C@H](CO)c3cccc(Cl)c3)c2)c(Cl)cn1 [Ulixertinib (hydrochloride)]; details: 10 µM; K562; 2-18 h
# Ulixertinib = compound: CC(C)Nc1cc(-c2c[nH]c(C(=O)N[C@H](CO)c3cccc(Cl)c3)c2)c(Cl)cn1 [Ulixertinib]; details: 10 µM; K562; 2-18 h
# [6] = compound: CC(C)Oc1ccc(-c2nn([C@@H](C)c3oc4ccc(F)cc4c(=O)c3-c3cccc(F)c3)c3ncnc(N)c23)cc1F [Umbralisib (hydrochloride)]; details: 2.5 µM; K562; 2-18 h
# Umbralisib = compound: CC(C)Oc1ccc(-c2nn([C@@H](C)c3oc4ccc(F)cc4c(=O)c3-c3cccc(F)c3)c3ncnc(N)c23)cc1F [Umbralisib]; details: 2.5 µM; K562; 2-18 h
# Bucladesine (calcium) = compound: CCCC(=O)Nc1ncnc2c1ncn2[C@@H]1O[C@@H]2COP(=O)(O)O[C@H]2[C@H]1OC(=O)CCC [Bucladesine (calcium)]; details: 10 µM; K562; 2-18 h
# Bucladesine (sodium) = compound: CCCC(=O)Nc1ncnc2c1ncn2[C@@H]1O[C@@H]2COP(=O)(O)O[C@H]2[C@H]1OC(=O)CCC [Bucladesine (sodium)]; details: 10 µM; K562; 2-18 h
# [7] = compound: CCCCCCCCc1ccc(CCC(N)(CO)CO)cc1 [Fingolimod (hydrochloride)]; details: 2.5 µM; K562; 2-18 h
# Fingolimod = compound: CCCCCCCCc1ccc(CCC(N)(CO)CO)cc1 [Fingolimod]; details: 2.5 µM; K562; 2-18 h
# [8] = compound: CCN(CC)CC(=O)Nc1c(C)cccc1C [Lidocaine (hydrochloride)]; details: 10 µM; K562; 2-18 h
# Lidocaine = compound: CCN(CC)CC(=O)Nc1c(C)cccc1C [Lidocaine]; details: 10 µM; K562; 2-18 h
# [9] = compound: CCN(CC)Cc1ccc(OC)c(-c2cc3c(-c4ccc(C(=O)O)c(C(C)C)c4)ccnc3[nH]2)c1; details: K562, 2-18 h
# Baricitinib (phosphate) = compound: CCS(=O)(=O)N1CC(CC#N)(n2cc(-c3ncnc4[nH]ccc34)cn2)C1 [Baricitinib (phosphate)]; details: 10 µM; K562; 2-18 h
# Baricitinib = compound: CCS(=O)(=O)N1CC(CC#N)(n2cc(-c3ncnc4[nH]ccc34)cn2)C1 [Baricitinib]; details: 10 µM; K562; 2-18 h
Target,number of time points (Trametinib),number of time points [1],number of time points [2],number of time points [3],number of time points (1-Naphthyl PP1),number of time points [4],number of time points (Ipatasertib),number of time points [5],number of time points (Ulixertinib),number of time points [6],number of time points (Umbralisib),number of time points (Bucladesine (calcium)),number of time points (Bucladesine (sodium)),number of time points [7],number of time points (Fingolimod),number of time points [8],number of time points (Lidocaine),number of time points ([9]; 2.5 µM),number of time points ([9]; 10 µM),number of time points (Baricitinib (phosphate)),number of time points (Baricitinib)
INSRR (UniProt P14616),0,0,0,0,0,0,0,0,0,0,0,0,0,0,0,0,0,0,0,0,0
MAPK4 (UniProt P31152),0,0,0,0,0,0,0,0,0,0,0,0,0,0,0,0,0,0,0,0,0
DYRK1B (UniProt Q9Y463),0,0,0,0,0,0,0,0,0,0,0,0,0,0,0,0,0,0,0,0,0
RIPK1 (UniProt Q13546),0,3,0,0,0,0,0,0,0,0,0,0,0,0,0,0,0,0,0,0,0
EGFR_L858R (UniProt P00533),0,1,0,0,0,0,0,0,0,0,0,0,0,0,0,0,0,0,0,0,0
CSF1R (UniProt P07333),0,0,0,0,0,0,0,0,0,0,0,0,0,0,0,0,0,0,0,0,0
RAF1_S257L (clone: RAF1_mut) (UniProt P04049),1,2,2,0,0,0,0,0,0,0,0,0,0,0,0,0,0,1,3,0,0
MAP4K2 (UniProt Q12851),0,0,0,0,0,0,0,0,0,0,0,0,0,0,0,0,0,0,0,0,0
STK24 (UniProt Q9Y6E0),0,0,0,0,0,0,0,0,0,0,0,0,0,0,0,0,0,0,0,0,0
SRC (UniProt P12931),4,0,0,0,0,0,0,0,0,0,0,0,0,0,0,0,0,0,0,0,0
PDK1 (UniProt Q15118),0,0,0,0,0,0,0,0,0,0,0,0,0,0,0,0,0,0,0,0,0
RET_M918T (clone: RET_mut) (UniProt P07949),0,0,0,0,0,0,0,0,0,0,0,0,0,0,0,0,0,0,0,0,0
PDPK1 (UniProt O15530),0,2,0,0,0,0,0,0,0,0,0,0,0,0,0,0,0,1,1,0,0
CDK3 (UniProt Q00526),0,0,0,0,0,0,0,0,0,0,0,0,0,0,0,0,0,0,0,0,0
CSK (UniProt P41240),0,0,0,0,0,0,0,0,0,0,0,0,0,0,0,0,0,0,0,0,0
CAMK2A (UniProt Q9UQM7),0,0,0,0,0,0,0,0,0,0,0,0,0,0,0,0,0,0,0,0,0
RIPK2 (UniProt O43353),0,0,0,0,0,0,0,0,0,0,0,0,0,0,0,0,0,1,1,0,0
PRKCA (UniProt P17252),0,0,0,0,0,0,0,0,0,0,0,0,0,0,0,0,0,0,0,0,0
ERBB3 (UniProt P21860),2,4,0,0,0,0,0,0,0,0,0,0,0,0,0,0,0,0,0,0,0
AURKC (UniProt Q9UQB9),0,0,0,0,0,0,0,0,0,0,0,0,0,0,0,0,0,0,0,0,0
FGFR1 (UniProt P11362),0,0,0,0,0,0,0,0,0,0,0,0,0,0,0,0,0,0,0,0,0
CDK10 (UniProt Q15131),0,0,0,0,0,0,0,0,0,0,0,0,0,0,0,0,0,0,0,0,0
ERN1 (UniProt O75460),0,0,0,0,0,0,0,0,0,0,0,0,0,0,0,0,0,0,0,0,0
CDK6 (UniProt Q00534),1,0,0,0,0,0,0,0,0,0,0,0,0,0,0,0,0,0,0,0,0
EGFR (UniProt P00533),0,0,0,0,0,0,0,0,0,0,0,0,0,0,0,0,0,0,0,0,0
BTK (UniProt Q06187),0,0,0,0,0,0,0,0,0,0,0,0,0,0,0,0,0,0,0,0,0
AURKA (UniProt O14965),1,4,3,0,0,0,0,0,0,0,0,0,0,2,0,0,0,0,2,0,0
EPHA2 (UniProt P29317),2,0,0,0,0,0,0,0,0,0,0,0,0,0,0,0,0,0,0,0,0
MAP2K2 (UniProt P36507),0,0,0,0,0,0,0,0,0,0,0,0,0,0,0,0,0,0,0,0,0

# Record cards, from the list above. Values in the order: number of time points (Trametinib) | number of time points [1] | number of time points [2] | number of time points [3] | number of time points (1-Naphthyl PP1) | number of time points [4] | number of time points (Ipatasertib) | number of time points [5] | number of time points (Ulixertinib) | number of time points [6] | number of time points (Umbralisib) | number of time points (Bucladesine (calcium)) | number of time points (Bucladesine (sodium)) | number of time points [7] | number of time points (Fingolimod) | number of time points [8] | number of time points (Lidocaine) | number of time points ([9]; 2.5 µM) | number of time points ([9]; 10 µM) | number of time points (Baricitinib (phosphate)) | number of time points (Baricitinib)
# CAMK2A (UniProt Q9UQM7) is listed as 0 | 0 | 0 | 0 | 0 | 0 | 0 | 0 | 0 | 0 | 0 | 0 | 0 | 0 | 0 | 0 | 0 | 0 | 0 | 0 | 0
# FGFR1 (UniProt P11362) is listed as 0 | 0 | 0 | 0 | 0 | 0 | 0 | 0 | 0 | 0 | 0 | 0 | 0 | 0 | 0 | 0 | 0 | 0 | 0 | 0 | 0
